The text below walks through data of PubChem BioAssay AID330 (DTP/NCI, 2004).

In the assay the test system is P388 leukemia ip, CD2F1 mice, survival T/C. Put plainly: NCI In Vivo Anticancer Drug Screen. Data for tumor model P388 Leukemia (intraperitoneal) in CD2F1 (CDF1) mice. The conditions noted are these: T/C endpoint: median survival time, higher T/C = longer survival.
Setting [1] is: dose: 50.0 mg/kg/injection, schedule: Q01DX005 (ip), vehicle: saline + Tween-80 + alcohol.
[2] abbreviates: dose: 25.0 mg/kg/injection, schedule: Q01DX009 (ip), vehicle: saline.
The mark [3] stands for this setting: dose: 50.0 mg/kg/injection, schedule: Q01DX009 (ip), vehicle: saline.
Where [4] appears, read: dose: 100.0 mg/kg/injection, schedule: Q01DX009 (ip), vehicle: saline.
Where [5] appears, read: dose: 200.0 mg/kg/injection, schedule: Q01DX009 (ip), vehicle: saline.
Setting [6] is: dose: 12.5 mg/kg/injection, schedule: Q01DX009 (ip), vehicle: saline.

The list does not hold the whole screen: it gathers tests that were run many times, whatever their T/C, doses with no T/C, and many T/C values between a quarter and a half above the control. Other doses and runs of a compound stand elsewhere. T/C is the treated group as % of the vehicle group. Some entries give survivors of the animals treated and no T/C: the source files T/C as zero there, which appears to mark a toxic dose or a test without result, not a measured value. Some survivor counts are full or nearly so, which does not show that the dose was tolerated: survival well below the control is almost never listed, so the zero probably covers shortened survival too. Counts of survivors are from the toxicity check (mostly the fifth day) where no day follows; animals may have died later. Schedules are NCI's codes, read here as Q, the interval in days (D) or hours (H), X, the number of doses. Some doses were run more than once; their values stand side by side, smallest first. For survival time, the PubChem record calls one and a half times the control and up active, and a quarter to a half above the control has no call in these data; cut-offs in other NCI protocols can differ. Some T/C values are followed by the survivors on the day toxicity was checked, most often the fifth; where none is given, no animal had died by that day.

For `CCCCCCCCCCCC[N+](C)(C)C` (tested in a mixture with another compound), the survivor count runs as follows: (dose: 50.0 mg/kg/injection, schedule: Q01DX009 (ip), vehicle: Klucel (hydroxypropylcellulose) (HPC)) 4 of 6; (dose: 100.0 mg/kg/injection, schedule: Q01DX009 (ip), vehicle: Klucel (hydroxypropylcellulose) (HPC)) 0 of 6.
Regarding `C/C(=N\NC(=S)N1CCCC1)c1cccc(C)n1`, the T/C under setting [1] was 126 % of control. Besides, the survivor count under setting [1] is recorded as 0 of 6; the survivor count (dose: 100.0 mg/kg/injection, schedule: Q01DX005 (ip), vehicle: saline + Tween-80 + alcohol) is 0 of 6 and 2 of 6; the survivor count (dose: 200.0 mg/kg/injection, schedule: Q01DX005 (ip), vehicle: saline + Tween-80 + alcohol) is on record as 0 of 6.
With `COc1nc(=O)n(C2C=CC(=O)O2)cc1F` (centres undefined), the T/C (dose: 10.0 mg/kg/injection, schedule: Q01DX009 (ip), vehicle: saline) is 139 % of control and the T/C (dose: 60.0 mg/kg/injection, schedule: Q01DX009 (ip), vehicle: saline) is 125 % of control.
As for `N/N=C(/N)[Se]`, the survivor count was 3 of 6 under setting [2], 1 of 6 under setting [3], 0 of 6 under setting [4] and 0 of 6 under setting [5].
As to `CCOC(=O)N1CCN(c2ccc(/C=C\c3cccc(/C=C\c4ccc(N5CCN(C(=O)OCC)CC5)cc4)[n+]3C)cc2)CC1`, the survivor count runs as follows: under setting [6], 1 of 6; under setting [3], 2 of 6; under setting [4], 0 of 6; under setting [5], 0 of 6.
On to `COC(=O)/C(=C/Cl)NC(C)=O`, for which the survivor count by setting is: (dose: 100.0 mg/kg/injection, schedule: Q01DX001 (ip), vehicle: suspension in saline) 6 of 6; (dose: 400.0 mg/kg/injection, schedule: Q01DX001 (ip), vehicle: suspension in saline) 6 of 6.
As to `NS(=O)(=O)c1ccc(N=Cc2cnc3ccccc3c2)cc1`, the survivor count (dose: 5.0 mg/kg/injection, schedule: Q01DX009 (ip), vehicle: saline) was 6 of 6.
Turning to `COc1ccc(C)cc1N=NC1C(=O)N(C(=O)CC(=O)Nc2ccccc2Cl)N=C1C` (centres undefined), the survivor count (dose: 200.0 mg/kg/injection, schedule: Q01DX005 (ip), vehicle: Klucel (hydroxypropylcellulose) (HPC)) is on record as 6 of 6.
Regarding `CN(C)c1ccc([N+]([O-])=Nc2ccc3ccccc3c2)cc1`, the survivor count (dose: 120.0 mg/kg/injection, schedule: Q01DX005 (ip), vehicle: saline with Tween-80) is recorded as 6 of 6.
Take `N#CN(Cc1ccccc1)Cc1ccccc1.[I][Sn]([c]1ccccc1)([c]1ccccc1)[c]1ccccc1`: the survivor count runs as follows: (dose: 12.5 mg/kg/injection, schedule: Q01DX005 (ip), vehicle: saline with Tween-80) 2 of 6; (dose: 25.0 mg/kg/injection, schedule: Q01DX005 (ip), vehicle: saline with Tween-80) 0 of 6; (dose: 50.0 mg/kg/injection, schedule: Q01DX005 (ip), vehicle: saline with Tween-80) 3 of 6; (dose: 100.0 mg/kg/injection, schedule: Q01DX005 (ip), vehicle: saline with Tween-80) 0 of 6; (dose: 200.0 mg/kg/injection, schedule: Q01DX005 (ip), vehicle: saline with Tween-80) 0 of 6.
On to `Nc1ccc2c(SCCCCCCCCSc3c4ccccc4nc4cc(N)ccc34)c3ccccc3nc2c1`, for which, for the setting “dose: 240.0 mg/kg/injection, schedule: Q01DX005 (ip), vehicle: saline with Tween-80”, the survivor count is 4 of 6.
In the case of `O=C(O)c1cncc(C(=O)NCO)c1`, the survivor count by setting is: under setting [6], 5 of 6; under setting [2], 6 of 6; under setting [3], 6 of 6. In addition, the T/C is 92, 94, 98, 99 % of control under setting [3] and 87, 89, 94, 100, 128 % of control [5 of 6 alive] under setting [4].
In the case of `CC1=NN(C(=O)c2ccccc2)C(=O)C1N=Nc1ccc([N+](=O)[O-])cc1` (centres undefined), the survivor count is listed as 6 of 6 (dose: 200.0 mg/kg/injection, schedule: Q04DX002 (ip), vehicle: saline with Tween-80) and 6 of 6 (dose: 400.0 mg/kg/injection, schedule: Q04DX002 (ip), vehicle: saline with Tween-80).
Take `CCOC(=O)/C=C(\C)NC1CC(OC2CC(O)(C(C)=O)Cc3c(O)c4c(c(O)c32)C(=O)c2c(OC)cccc2C4=O)OC(C)C1O` (centres undefined): the T/C was 131 % of control (dose: 3.13 mg/kg/injection, schedule: Q04DX003 (ip), vehicle: distilled water + Tween-80); 125 and 131 % of control (dose: 25.0 mg/kg/injection, schedule: Q04DX003 (ip), vehicle: distilled water + Tween-80); 144 % of control (dose: 50.0 mg/kg/injection, schedule: Q04DX003 (ip), vehicle: distilled water + Tween-80); 147 % of control (dose: 100.0 mg/kg/injection, schedule: Q04DX003 (ip), vehicle: distilled water + Tween-80). For the same compound, for the setting “dose: 200.0 mg/kg/injection, schedule: Q04DX003 (ip), vehicle: distilled water + Tween-80”, the survivor count is 6 of 6 on day 9.
As to `C#C/C=C/CC1O[C@H](/C=C/C)C/C=C\CC1Cl` (some centres undefined), the survivor count (dose: 125.0 mg/kg/injection, schedule: Q01DX005 (ip), vehicle: Klucel (hydroxypropylcellulose) (HPC)) is recorded as 4 of 5.
For the compound `COc1ccc(C2OC3=C(Nc4cc(C)c(C)cc4N3)C2=O)cc1` (centres undefined), the survivor count (dose: 240.0 mg/kg/injection, schedule: Q01DX005 (ip), vehicle: Klucel (hydroxypropylcellulose) (HPC)) is given as 6 of 6.
As to `CCOP1(OCC)(OCC)OC(C(F)(F)F)(C(F)(F)F)C(C(F)(F)F)(C(F)(F)F)O1`, the survivor count (dose: 25.0 mg/kg/injection, schedule: Q01DX009 (ip), vehicle: saline with Tween-80) is 6 of 6; the survivor count (dose: 50.0 mg/kg/injection, schedule: Q01DX009 (ip), vehicle: saline with Tween-80) is recorded as 2 of 6; the survivor count (dose: 100.0 mg/kg/injection, schedule: Q01DX009 (ip), vehicle: saline with Tween-80) is recorded as 0 of 6; the survivor count (dose: 200.0 mg/kg/injection, schedule: Q01DX009 (ip), vehicle: saline with Tween-80) is listed as 0 of 6.
Take `O=NN(CCF)C(=O)NC1CCCCC1`: the survivor count is, setting by setting: (dose: 25.0 mg/kg/injection, schedule: Q04DX003 (ip), vehicle: saline with Tween-80) 3 of 6; (dose: 37.5 mg/kg/injection, schedule: Q04DX003 (ip), vehicle: saline with Tween-80) 0 of 6; (dose: 50.0 mg/kg/injection, schedule: Q04DX003 (ip), vehicle: saline with Tween-80) 0 of 6; (dose: 100.0 mg/kg/injection, schedule: Q04DX003 (ip), vehicle: saline with Tween-80) 0 of 6.
